Laboratory results: the supplement of paper PMC9877034
Structures can show the parent of a compound that is named as a salt. Over roughly 1,000 compounds, “cFRET/donor change relative to DMSO, normalised to beta-lapachone positive control (supercomplex I-IV assembly)” has its median near 0.18; the lowest 2% begin near -1. Some of the results follow.

System: C2C12 (NDUFB8-AcGFP / COX8A-DsRed-Monomer FRET reporter)
Assay: cFRET/donor change relative to DMSO, normalised to beta-lapachone positive control (supercomplex I-IV assembly) (fraction of beta-lapachone effect); higher = more respiratory supercomplex assembly
Conditions: 40 µM; 24 h
Method: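 Cells were treated with 40 uM compound for 24 h and imaged on an IN Cell Analyzer 6000. Corrected FRET was divided by donor signal (cFRET/donor) and measured in two replicate experiments. The score is (mean cFRET/donor of compound - mean DMSO) / (mean beta-lapachone 40 uM - mean DMSO). Compounds flagged for prominent cell death, abnormal morphology or decreased cell number were excluded.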

Compound | cFRET/donor change
O=C(N[C@H]1CN2CCC1CC2)c1cc2ccoc2cn1 | -0.39
C=C(C)[C@H]1CN[C@H](C(=O)O)[C@H]1CC(=O)O [Kainic acid] | 0.149
O=C(N[C@H]1CN2CCC1CC2)c1ccc(Cl)cc1 | 0.638
O=[N+]([O-])c1ccc2nc(N3CCNCC3)ccc2c1 [Quipazine, 6-nitro-, maleate] | 0.153
N#Cc1ccc(N2CCN(C(=O)COc3ccc4[nH]cc(CCN)c4c3)CC2)cc1 [Donitriptan monohydrochloride] | 0.152
c1ccc2c(N3CCNCC3)cccc2c1 [1-(1-Naphthyl)piperazine hydrochloride] | 0.293
N=C(N)NN [Aminoguanidine hemisulfate] | 0.162
N=C(N)NN [Aminoguanidine hydrochloride] | -0.0493
CC(C)N(CCC(C(N)=O)(c1ccccc1)c1ccccn1)C(C)C (configuration not stated) [Disopyramide] | -0.199
CC(C)N(CCC(C(N)=O)(c1ccccc1)c1ccccn1)C(C)C (configuration not stated) [Disopyramide phosphate] | 0.118
CC(Cc1ccc(OCC(=O)O)cc1)NCC(O)c1cccc(Cl)c1 (configuration not stated) | 0.271
CC(C)=CCOc1c2occc2cc2ccc(=O)oc12 [Imperatorin] | 0.183
C=CCN1C[C@H](C)N([C@H](c2ccc(C(=O)N(CC)CC)cc2)c2cccc(OC)c2)C[C@H]1C | 0.538
O=[N+]([O-])c1cc(O)c(O)c([N+](=O)[O-])c1 [3,5-Dinitrocatechol] | -0.196
C[C@H](N)CN1CCc2ccc(Br)cc21 [VER-3323 hemifumarate salt] | 0.26
CN1[C@@H]2CC[C@H]1C[C@@H](OC(=O)[C@H](CO)c1ccccc1)C2 [L-Hyoscyamine] | 0.00396
Clc1cnc(Oc2ccc(Oc3ncc(Cl)cc3Cl)cc2)c(Cl)c1 | 0.196
CNCCc1ccc(O)c(O)c1 [N-Methyldopamine hydrochloride] | 0.343
COc1ccc2c(c1)[C@]13CCCC[C@@H]1[C@H](C2)N(C)CC3 [Dextromethorphan hydrobromide monohydrate] | 0.421
CCCN1CCC[C@@H]2Cc3nc(N)ncc3C[C@H]21 [Quinelorane dihydrochloride] | 0.181
CNCC(O)c1ccc(O)cc1 (racemic) [(±)-Synephrine] | 0.505

Compound | cFRET/donor change
CC(Cc1ccc(O)cc1)NCC(O)c1cc(O)cc(O)c1 (configuration not stated) [Fenoterol hydrobromide] | 0.255
C1CCc2nnnn2CC1 [Pentylenetetrazole] | 0.498
CC(C)(C)c1cc(C(C)(C)C)c2c(c1)C(O)(C(F)(F)F)C(=O)O2 (racemic) | 0.569
O=c1[nH]c2ccccc2n1CCCN1CCC(n2c(=O)[nH]c3cc(Cl)ccc32)CC1 [Domperidone] | 0.254
NC(N)=NOCC[C@H](N)C(=O)O [L-Canavanine] | 0.0375
NC(N)=NOCC[C@H](N)C(=O)O [L-Canavanine sulfate] | -0.00844
N[C@@H](Cn1oc(=O)[nH]c1=O)C(=O)O [(+)-Quisqualic acid] | 0.0742
C[N+]1(C)CCOC(O)(c2ccc(-c3ccc(C4(O)C[N+](C)(C)CCO4)cc3)cc2)C1 (configuration not stated) [Hemicholinium-3] | -6.84e-05
Nc1ccncc1 [4-Aminopyridine] | 0.364
CC[C@@H](C(N)=O)N1CCCC1=O [Levetiracetam] | -0.109
CCS(=O)(=O)Nc1cccc(C(=C2CCCCC2)c2cnc[nH]2)c1 | 0.149
Cc1[nH]c2ccc(O)cc2c1CCN [2-Methyl-5-hydroxytryptamine maleate] | -0.273
COc1ccc(C(=O)N2CCCC2=O)cc1 [Aniracetam] | 0.184
CCCCCCCCCCCCCC(=O)O[C@@H]1[C@@H](C)[C@@]2(O)[C@@H](C=C(CO)C[C@]3(O)C(=O)C(C)=C[C@@H]23)[C@@H]2C(C)(C)[C@]12OC(C)=O [Phorbol 12-myristate 13-acetate] | -0.00691
O=C1/C(=C/c2ccccc2)C[C@@]2(O)[C@H]3Cc4ccc(O)c5c4[C@@]2(CCN3CC2CC2)[C@H]1O5 [BNTX maleate salt hydrate] | 0.649
CN1CCC(c2c[nH]c3ccc(O)cc23)CC1 | 0.0828
CC(N)Cc1c[nH]c2ccc(OCc3cccs3)cc12 (configuration not stated) | 0.478
CC(C)(C)OC(=O)NC1[C@H]2CNC[C@@H]12 (some centres not stated) | 0.223
C[N+](C)(C)CC#CCN1CCCC1=O [Oxotremorine methiodide] | -0.0709
NC(=O)c1ccc(OCC(O)CN2CC=C(c3ccc(F)cc3)CC2)cc1 (configuration not stated) | 0.0729
NC(=O)CN1CC(O)CC1=O (configuration not stated) [Oxiracetam] | 0.345

For convenience, some entries already given:
Compound | cFRET/donor change
Clc1cnc(Oc2ccc(Oc3ncc(Cl)cc3Cl)cc2)c(Cl)c1 | 0.196
CNCCc1ccc(O)c(O)c1 [N-Methyldopamine hydrochloride] | 0.343
COc1ccc2c(c1)[C@]13CCCC[C@@H]1[C@H](C2)N(C)CC3 [Dextromethorphan hydrobromide monohydrate] | 0.421
CCCN1CCC[C@@H]2Cc3nc(N)ncc3C[C@H]21 [Quinelorane dihydrochloride] | 0.181
CNCC(O)c1ccc(O)cc1 (racemic) [(±)-Synephrine] | 0.505
CC(Cc1ccc(O)cc1)NCC(O)c1cc(O)cc(O)c1 (configuration not stated) [Fenoterol hydrobromide] | 0.255
C1CCc2nnnn2CC1 [Pentylenetetrazole] | 0.498
CC(C)(C)c1cc(C(C)(C)C)c2c(c1)C(O)(C(F)(F)F)C(=O)O2 (racemic) | 0.569
O=c1[nH]c2ccccc2n1CCCN1CCC(n2c(=O)[nH]c3cc(Cl)ccc32)CC1 [Domperidone] | 0.254
NC(N)=NOCC[C@H](N)C(=O)O [L-Canavanine] | 0.0375
NC(N)=NOCC[C@H](N)C(=O)O [L-Canavanine sulfate] | -0.00844
N[C@@H](Cn1oc(=O)[nH]c1=O)C(=O)O [(+)-Quisqualic acid] | 0.0742
C[N+]1(C)CCOC(O)(c2ccc(-c3ccc(C4(O)C[N+](C)(C)CCO4)cc3)cc2)C1 (configuration not stated) [Hemicholinium-3] | -6.84e-05
Nc1ccncc1 [4-Aminopyridine] | 0.364
CC[C@@H](C(N)=O)N1CCCC1=O [Levetiracetam] | -0.109
CCS(=O)(=O)Nc1cccc(C(=C2CCCCC2)c2cnc[nH]2)c1 | 0.149
Cc1[nH]c2ccc(O)cc2c1CCN [2-Methyl-5-hydroxytryptamine maleate] | -0.273
COc1ccc(C(=O)N2CCCC2=O)cc1 [Aniracetam] | 0.184
CCCCCCCCCCCCCC(=O)O[C@@H]1[C@@H](C)[C@@]2(O)[C@@H](C=C(CO)C[C@]3(O)C(=O)C(C)=C[C@@H]23)[C@@H]2C(C)(C)[C@]12OC(C)=O [Phorbol 12-myristate 13-acetate] | -0.00691
O=C1/C(=C/c2ccccc2)C[C@@]2(O)[C@H]3Cc4ccc(O)c5c4[C@@]2(CCN3CC2CC2)[C@H]1O5 [BNTX maleate salt hydrate] | 0.649
CN1CCC(c2c[nH]c3ccc(O)cc23)CC1 | 0.0828
CC(N)Cc1c[nH]c2ccc(OCc3cccs3)cc12 (configuration not stated) | 0.478
CC(C)(C)OC(=O)NC1[C@H]2CNC[C@@H]12 (some centres not stated) | 0.223
C[N+](C)(C)CC#CCN1CCCC1=O [Oxotremorine methiodide] | -0.0709
NC(=O)c1ccc(OCC(O)CN2CC=C(c3ccc(F)cc3)CC2)cc1 (configuration not stated) | 0.0729
NC(=O)CN1CC(O)CC1=O (configuration not stated) [Oxiracetam] | 0.345

(next part)

Compound | cFRET/donor change
CC[C@@]1(O)C(=O)OCc2c1cc1n(c2=O)Cc2cc3ccccc3nc2-1 [(S)-(+)-Camptothecin] | -0.169
NC(CCP(=O)(O)O)C(=O)O (racemic) [(±)-2-Amino-4-phosphonobutyric acid] | 0.0445
CN1C[C@H](C(=O)N[C@]2(C)O[C@@]3(O)[C@@H]4CCCN4C(=O)[C@H](Cc4ccccc4)N3C2=O)C[C@@H]2c3cccc4[nH]cc(c34)C[C@H]21 [Dihydroergotamine methanesulfonate] | 0.0998
C[N+]1(C)[C@@H]2CC[C@H]1C[C@@H](OC(=O)C(CO)c1ccccc1)C2 (some centres not stated) [Atropine methyl nitrate] | 0.332
C[N+]1(C)[C@@H]2CC[C@H]1C[C@@H](OC(=O)C(CO)c1ccccc1)C2 (some centres not stated) [Atropine methyl bromide] | 0.282
C[N+](C)(C)CCCCCCCCCC[N+](C)(C)C [Decamethonium dibromide] | 0.584
N=C(N)c1ccc(CS(=O)(=O)F)cc1 [4-Amidinophenylmethanesulfonyl fluoride hydrochloride] | 0.194
CC(CCc1ccccc1)NC(C)C(O)c1ccc(O)cc1 (configuration not stated) [Nylidrin hydrochloride] | -0.016
OC1CCCCC1N1CCC(c2ccccc2)CC1 (racemic) [(±)-Vesamicol hydrochloride] | 0.446
CCCN1C[C@H](CSC)C[C@@H]2c3cccc4[nH]cc(c34)C[C@H]21 [Pergolide methanesulfonate] | 0.212
CCCCc1ccc(C(=O)O)nc1 [Fusaric acid] | 0.216
N.N.[Cl][Pt][Cl] [Cisplatin] | 0.276
C[N+](C)(C)CC#CCOC(=O)Nc1cccc(Cl)c1 | 0.565
Cc1ncc(CNC(=O)N(CCCl)N=O)c(N)n1 [Nimustine hydrochloride] | 0.109
COc1ccc2[nH]cc(CCN)c2c1 [O-Methylserotonin hydrochloride] | 0.535
CC(N)Cc1c[nH]c2ccc(O)cc12 (stereo not drawn) [alpha-Methyl-5-hydroxytryptamine maleate] | -0.286
c1ccc(C2(c3ccccc3)CC2C2=NCCN2)cc1 (configuration not stated) [Cibenzoline succinate] | 0.549
CCCN(CCC)C1CCc2ccc(O)cc2C1 (stereo not drawn) [R-(+)-7-Hydroxy-DPAT hydrobromide] | 0.116
CN1CCC[C@@H]1Cc1c[nH]c2ccc(Nc3ncccc3[N+](=O)[O-])cc12 | 0.0254
O=C1CCCN1CC#CCN1CCCC1 [Oxotremorine sesquifumarate salt] | -0.0621
NNC(=O)c1ccc(O)cc1 [4-Hydroxybenzhydrazide] | -0.0961

Compound | cFRET/donor change
NCCCP(=O)(O)O [3-Aminopropylphosphonic acid] | -0.0863
CNCCc1c[nH]c2ccc(O)cc12 [N-omega-Methyl-5-hydroxytryptamine oxalate salt] | 0.0949
COc1ccc(Cc2nccc3cc(OC)c(OC)cc23)cc1OC [Papaverine hydrochloride] | 0.155
NNC(N)=O [Semicarbazide hydrochloride] | 0.232
O=C[C@H](Cl)[C@@H](O)[C@H](O)[C@H](O)CO [2-Chloro-2-deoxy-D-glucose] | 0.124
C=C(C)[C@H]1Cc2c(ccc3c2O[C@@H]2COc4cc(OC)c(OC)cc4[C@@H]2C3=O)O1 [Rotenone] | 0.333
COC(=O)C1=CCCN(C)C1 [Arecoline hydrobromide] | 0.275
Fc1ccc(C(OCCN2CCN(CCCc3ccccc3)CC2)c2ccc(F)cc2)cc1 | 0.565
NC(=O)COc1c(F)cc(SCCNS(=O)(=O)c2ccccc2)cc1F | 0.186
CCCN1CCC[C@H](c2cccc(O)c2)C1 [R(+)-3PPP hydrochloride] | 0.436
C[N+]1(C)CCN(c2ccccc2)CC1 [1,1-Dimethyl-4-phenyl-piperazinium iodide] | 0.15
CCn1cc(C(=O)O)c(=O)c2cc3c(cc21)OCO3 [Oxolinic acid] | -0.248
C[N+]1(C)[C@@H]2C[C@@H](OC(=O)[C@H](CO)c3ccccc3)C[C@H]1[C@@H]1O[C@@H]12 [(-)-Scopolamine methyl bromide] | 0.155
CN(C(=O)Cc1ccc(Cl)c(Cl)c1)C(CN1CCCC1)c1cccc(OCC(=O)O)c1 (configuration not stated) [ICI 204,448 hydrochloride] | 0.0516
NCCc1ccc(O)cc1 [4-Hydroxyphenethylamine hydrochloride] | 0.427
NCC(O)c1ccc(O)cc1 (racemic) [(±)-Octopamine hydrochloride] | -0.284
C[C@@H](N)Cc1cnc[nH]1 [Histamine, R(-)-alpha-methyl-, dihydrochloride] | 0.0952
Clc1cc(I)cc(Cl)c1NC1=NCCN1 [p-Iodoclonidine hydrochloride] | 0.369
C[C@@H]1O[C@@H](O[C@H]2C[C@@H](O)[C@]3(CO)[C@H]4[C@H](O)C[C@]5(C)[C@@H](C6=CC(=O)OC6)CC[C@]5(O)[C@@H]4CC[C@]3(O)C2)[C@H](O)[C@H](O)[C@H]1O [Ouabain] | -0.0497
